Assay results taken from paper PMC7619307, “The Golgi vesicle tether p115 can bind directly to the ER exit site organiser Sec16A” (Journal of cell science, 2026).

Protein sequences, listed by entry. Tags and fused reporters are not part of them. Lines headed by an entry give the natural chain unless they say otherwise; changes in a name come on top.
UniProt O15027: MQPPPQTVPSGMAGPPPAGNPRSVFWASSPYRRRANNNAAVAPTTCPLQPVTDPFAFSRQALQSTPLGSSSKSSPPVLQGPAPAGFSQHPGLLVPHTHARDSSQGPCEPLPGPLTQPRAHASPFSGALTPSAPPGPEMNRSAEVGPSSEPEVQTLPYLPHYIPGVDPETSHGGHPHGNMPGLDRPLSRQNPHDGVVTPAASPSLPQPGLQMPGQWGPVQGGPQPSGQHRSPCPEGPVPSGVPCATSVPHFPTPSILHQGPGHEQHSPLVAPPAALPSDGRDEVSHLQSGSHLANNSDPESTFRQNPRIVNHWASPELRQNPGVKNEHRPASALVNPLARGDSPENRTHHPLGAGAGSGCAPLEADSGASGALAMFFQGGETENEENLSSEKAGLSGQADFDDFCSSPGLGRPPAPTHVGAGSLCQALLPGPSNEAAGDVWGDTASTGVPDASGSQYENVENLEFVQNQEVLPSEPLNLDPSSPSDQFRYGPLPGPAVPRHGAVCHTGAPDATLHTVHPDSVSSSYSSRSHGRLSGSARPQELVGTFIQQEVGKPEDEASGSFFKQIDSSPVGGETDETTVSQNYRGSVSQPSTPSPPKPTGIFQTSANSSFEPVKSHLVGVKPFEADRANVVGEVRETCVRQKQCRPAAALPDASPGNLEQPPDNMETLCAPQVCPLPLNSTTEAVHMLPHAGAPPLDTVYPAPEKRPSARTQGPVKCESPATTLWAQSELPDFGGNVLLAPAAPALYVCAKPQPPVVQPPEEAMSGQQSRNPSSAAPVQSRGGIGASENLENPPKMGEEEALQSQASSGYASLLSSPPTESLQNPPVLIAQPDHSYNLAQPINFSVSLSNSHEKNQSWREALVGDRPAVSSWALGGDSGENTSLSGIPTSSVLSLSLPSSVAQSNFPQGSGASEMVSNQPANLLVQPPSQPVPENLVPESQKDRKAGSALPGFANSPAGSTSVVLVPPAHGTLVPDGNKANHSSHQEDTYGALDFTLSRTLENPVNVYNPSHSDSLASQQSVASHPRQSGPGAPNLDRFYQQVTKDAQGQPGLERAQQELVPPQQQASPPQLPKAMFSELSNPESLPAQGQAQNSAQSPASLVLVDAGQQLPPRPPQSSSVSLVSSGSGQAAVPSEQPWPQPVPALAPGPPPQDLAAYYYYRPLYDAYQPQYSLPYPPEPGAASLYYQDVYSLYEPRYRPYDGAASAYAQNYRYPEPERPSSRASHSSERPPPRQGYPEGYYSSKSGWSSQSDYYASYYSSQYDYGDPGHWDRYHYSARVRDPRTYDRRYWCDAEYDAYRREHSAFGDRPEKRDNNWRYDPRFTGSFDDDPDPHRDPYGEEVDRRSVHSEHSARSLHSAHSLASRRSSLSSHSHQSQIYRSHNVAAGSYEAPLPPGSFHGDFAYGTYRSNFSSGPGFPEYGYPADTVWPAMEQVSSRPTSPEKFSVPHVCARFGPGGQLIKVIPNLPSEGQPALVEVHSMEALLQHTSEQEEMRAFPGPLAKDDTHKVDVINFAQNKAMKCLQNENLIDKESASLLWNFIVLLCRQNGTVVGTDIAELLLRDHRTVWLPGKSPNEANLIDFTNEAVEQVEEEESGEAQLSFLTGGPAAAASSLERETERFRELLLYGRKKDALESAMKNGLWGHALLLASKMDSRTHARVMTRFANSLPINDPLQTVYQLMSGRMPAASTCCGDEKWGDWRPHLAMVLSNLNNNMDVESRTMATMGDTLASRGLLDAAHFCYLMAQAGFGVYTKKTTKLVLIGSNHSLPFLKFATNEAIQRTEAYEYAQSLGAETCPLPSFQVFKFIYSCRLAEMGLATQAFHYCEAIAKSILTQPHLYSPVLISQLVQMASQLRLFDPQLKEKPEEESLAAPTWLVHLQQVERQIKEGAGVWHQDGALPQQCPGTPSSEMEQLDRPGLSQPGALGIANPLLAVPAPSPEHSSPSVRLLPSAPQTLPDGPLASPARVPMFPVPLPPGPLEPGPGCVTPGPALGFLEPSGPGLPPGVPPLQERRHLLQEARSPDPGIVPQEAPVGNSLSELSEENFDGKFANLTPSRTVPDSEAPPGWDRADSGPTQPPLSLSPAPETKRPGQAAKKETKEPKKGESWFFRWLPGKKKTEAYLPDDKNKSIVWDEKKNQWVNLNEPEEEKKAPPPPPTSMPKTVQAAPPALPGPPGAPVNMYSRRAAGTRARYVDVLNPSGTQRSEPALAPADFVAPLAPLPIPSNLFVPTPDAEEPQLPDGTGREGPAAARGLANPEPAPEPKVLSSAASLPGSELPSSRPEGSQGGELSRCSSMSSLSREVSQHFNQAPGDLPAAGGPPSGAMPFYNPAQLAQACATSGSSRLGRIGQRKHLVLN

Columns and labels:
[1] = molecular target: Sec16A (650–776) GFP fusion with site 1 mutations to alanine (human) (UniProt O15027); test: co-IP; GFP-tagged protein expressed in HEK293T cells, precipitated on GFP-Trap agarose (lysis with 150 mM NaCl, 0.5% Triton X-100; washes with 300 mM NaCl; 4°C); endogenous partner detected by immunoblot
[2] = molecular target: Sec16A (650–776) GFP fusion with site 2 mutations to alanine (human) (UniProt O15027); test: as above
[3] = molecular target: mitochondrial form of Sec16A (650–776) with site 1 mutations (human) (UniProt O15027); test: mitochondrial relocation assay (confocal microscopy); one partner anchored on mitochondria in HeLa cells (HA–MAO chimera); relocation of the endogenous or co-expressed partner to mitochondria seen by immunofluorescence or GFP
[4] = molecular target: mitochondrial form of Sec16A (650–776) with site 2 mutations (human) (UniProt O15027); test: as above

B1: endogenous p115 (HEK293T) (protein, UniProt O60763 1-962)
chain: MNFLRGVMGGQSAGPQHTEAETIQKLCDRVASSTLLDDRRNAVRALKSLSKKYRLEVGIQAMEHLIHVLQTDRSDSEIIGYALDTLYNIISNEEEEEVEENSTRQSEDLGSQFTEIFIKQQENVTLLLSLLEEFDFHVRWPGVKLLTSLLKQLGPQVQQIILVSPMGVSRLMDLLADSREVIRNDGVLLLQALTRSNGAIQKIVAFENAFERLLDIISEEGNSDGGIVVEDCLILLQNLLKNNNSNQNFFKEGSYIQRMKPWFEVGDENSGWSAQKVTNLHLMLQLVRVLVSPTNPPGATSSCQKAMFQCGLLQQLCTILMATGVPADILTETINTVSEVIRGCQVNQDYFASVNAPSNPPRPAIVVLLMSMVNERQPFVLRCAVLYCFQCFLYKNQKGQGEIVSTLLPSTIDATGNSVSAGQLLCGGLFSTDSLSNWCAAVALAHALQENATQKEQLLRVQLATSIGNPPVSLLQQCTNILSQGSKIQTRVGLLMLLCTWLSNCPIAVTHFLHNSANVPFLTGQIAENLGEEEQLVQGLCALLLGISIYFNDNSLESYMKEKLKQLIEKRIGKENFIEKLGFISKHELYSRASQKPQPNFPSPEYMIFDHEFTKLVKELEGVITKAIYKSSEEDKKEEEVKKTLEQHDNIVTHYKNMIREQDLQLEELRQQVSTLKCQNEQLQTAVTQQVSQIQQHKDQYNLLKIQLGKDNQHQGSYSEGAQMNGIQPEEIGRLREEIEELKRNQELLQSQLTEKDSMIENMKSSQTSGTNEQSSAIVSARDSEQVAELKQELATLKSQLNSQSVEITKLQTEKQELLQKTEAFAKSVEVQGETETIIATKTTDVEGRLSALLQETKELKNEIKALSEERTAIKEQLDSSNSTIAILQTEKDKLELEITDSKKEQDDLLVLLADQDQKILSLKNKLKDLGHPVEEEDELESGDQEDEDDESEDPGKDLDHI
Question: With B1 as the binder, how does the binding [1] read?
Answer: no binding

Question: What about the binding [2] of the same binder?
Answer: no binding

B2: endogenous p115 (HeLa) (protein, UniProt O60763 1-962)
chain: MNFLRGVMGGQSAGPQHTEAETIQKLCDRVASSTLLDDRRNAVRALKSLSKKYRLEVGIQAMEHLIHVLQTDRSDSEIIGYALDTLYNIISNEEEEEVEENSTRQSEDLGSQFTEIFIKQQENVTLLLSLLEEFDFHVRWPGVKLLTSLLKQLGPQVQQIILVSPMGVSRLMDLLADSREVIRNDGVLLLQALTRSNGAIQKIVAFENAFERLLDIISEEGNSDGGIVVEDCLILLQNLLKNNNSNQNFFKEGSYIQRMKPWFEVGDENSGWSAQKVTNLHLMLQLVRVLVSPTNPPGATSSCQKAMFQCGLLQQLCTILMATGVPADILTETINTVSEVIRGCQVNQDYFASVNAPSNPPRPAIVVLLMSMVNERQPFVLRCAVLYCFQCFLYKNQKGQGEIVSTLLPSTIDATGNSVSAGQLLCGGLFSTDSLSNWCAAVALAHALQENATQKEQLLRVQLATSIGNPPVSLLQQCTNILSQGSKIQTRVGLLMLLCTWLSNCPIAVTHFLHNSANVPFLTGQIAENLGEEEQLVQGLCALLLGISIYFNDNSLESYMKEKLKQLIEKRIGKENFIEKLGFISKHELYSRASQKPQPNFPSPEYMIFDHEFTKLVKELEGVITKAIYKSSEEDKKEEEVKKTLEQHDNIVTHYKNMIREQDLQLEELRQQVSTLKCQNEQLQTAVTQQVSQIQQHKDQYNLLKIQLGKDNQHQGSYSEGAQMNGIQPEEIGRLREEIEELKRNQELLQSQLTEKDSMIENMKSSQTSGTNEQSSAIVSARDSEQVAELKQELATLKSQLNSQSVEITKLQTEKQELLQKTEAFAKSVEVQGETETIIATKTTDVEGRLSALLQETKELKNEIKALSEERTAIKEQLDSSNSTIAILQTEKDKLELEITDSKKEQDDLLVLLADQDQKILSLKNKLKDLGHPVEEEDELESGDQEDEDDESEDPGKDLDHI
Question: What does the source list for B2?
Answer: binding [3]: no binding; binding [4]: no binding

These are yes or no findings as the source states them, for the method shown. For some of these results: Binding seen in cells or lysates may run through a third protein.
